## Screening data, single-dose tests

Protein sequences, listed by entry. Tags and fused reporters are not part of them. Residues count along the entry.
UniProt Q8IDJ8, 1-583: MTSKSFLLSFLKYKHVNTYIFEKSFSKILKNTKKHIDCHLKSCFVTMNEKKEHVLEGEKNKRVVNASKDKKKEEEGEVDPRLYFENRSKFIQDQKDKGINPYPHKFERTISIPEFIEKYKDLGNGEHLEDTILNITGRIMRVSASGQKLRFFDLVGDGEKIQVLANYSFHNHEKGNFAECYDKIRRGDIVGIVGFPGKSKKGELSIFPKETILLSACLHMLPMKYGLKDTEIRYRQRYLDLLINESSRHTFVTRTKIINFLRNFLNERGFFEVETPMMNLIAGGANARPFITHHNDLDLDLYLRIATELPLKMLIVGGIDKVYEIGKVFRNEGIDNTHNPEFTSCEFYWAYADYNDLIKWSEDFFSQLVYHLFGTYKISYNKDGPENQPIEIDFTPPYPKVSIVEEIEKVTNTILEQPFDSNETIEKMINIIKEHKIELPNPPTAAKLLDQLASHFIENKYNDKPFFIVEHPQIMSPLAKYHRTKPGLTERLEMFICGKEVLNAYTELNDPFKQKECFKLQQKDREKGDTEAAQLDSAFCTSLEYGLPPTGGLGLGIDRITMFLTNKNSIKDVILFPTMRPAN
UniProt P9WFT3, whole entry: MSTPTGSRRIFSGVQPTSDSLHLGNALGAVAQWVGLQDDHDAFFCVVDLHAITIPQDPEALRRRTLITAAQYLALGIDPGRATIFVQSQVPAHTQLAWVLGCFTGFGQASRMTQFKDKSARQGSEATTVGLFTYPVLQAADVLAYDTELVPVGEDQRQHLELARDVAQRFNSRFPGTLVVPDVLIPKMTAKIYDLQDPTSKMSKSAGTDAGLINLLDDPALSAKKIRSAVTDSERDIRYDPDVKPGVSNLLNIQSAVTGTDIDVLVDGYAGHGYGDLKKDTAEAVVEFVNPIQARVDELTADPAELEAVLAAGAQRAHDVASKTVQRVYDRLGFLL
UniProt P9WPC5, whole entry: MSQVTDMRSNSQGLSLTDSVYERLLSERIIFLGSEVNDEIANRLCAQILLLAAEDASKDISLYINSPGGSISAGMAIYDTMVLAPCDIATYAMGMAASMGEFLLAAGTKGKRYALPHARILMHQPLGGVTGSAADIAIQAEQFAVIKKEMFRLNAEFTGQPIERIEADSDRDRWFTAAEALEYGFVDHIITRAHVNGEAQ
UniProt P9WPC3, whole entry partner: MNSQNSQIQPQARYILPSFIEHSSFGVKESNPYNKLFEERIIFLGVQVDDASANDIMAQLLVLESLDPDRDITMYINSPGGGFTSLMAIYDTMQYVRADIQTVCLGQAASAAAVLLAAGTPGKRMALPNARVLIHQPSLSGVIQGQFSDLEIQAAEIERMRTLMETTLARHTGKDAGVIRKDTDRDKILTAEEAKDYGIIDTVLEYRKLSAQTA

A: 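Enzyme assay of the cytosolic lysyl-tRNA synthetase in 384-well plates, read by luminescence. Target: Lysine-tRNA ligase, Plasmodium falciparum 3D7 (UniProt Q8IDJ8). Compounds at 30 µM. Higher reads as stronger inhibition, judged from the few compounds that gave an IC50. Size under these conditions: about 69,000 compounds, about 49 of them at 50% or above in at least one test.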
B: 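Tryptophan-tRNA ligase, Mycobacterium tuberculosis (UniProt P9WFT3). Enzyme assay of tryptophanyl-tRNA synthetase; the read-out is not stated. Concentration: 10 µM. Higher most likely means stronger inhibition; the record gives no direction and few retests gave an IC50. Size under these conditions: about 65,000 compounds, about 64 of them at 50% or above in at least one test.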
C: 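ClpP1P2, Mycobacterium tuberculosis (UniProt P9WPC5 and UniProt P9WPC3). Protease assay of ClpP1P2, read by the AMC dye that it sets free. Concentration: 50 µM. Higher reads as stronger inhibition, judged from the few compounds that gave an IC50. Most other retested compounds had strongly negative values. Of about 69,000 compounds tested this way, about 10 (0.015%) reached 50% or more in at least one test.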

Results are given as percent effect.
The record does not define 0% and 100%; most values in the screen are far below 50% and negative numbers occur (in some assays of this library far below -100).
This is an unselected part of the compounds tested.
A dash means the value is not listed here; it may have been measured.

compound | A | B | C
Cc1cc(-c2ccccc2C(=O)O)nc(C2CCCN2S(C)(=O)=O)n1 (centres unmarked) | -0.77 | -0.2038 | -8.305
CSc1ncccc1C(=O)NCC(c1ccco1)N(C)C (centres unmarked) | -1.596 | -1.232 | 15.19
c1cncc(CNc2ccc3nc(C4CCNCC4)nn3c2)c1 | 6.268 | -10.87 | 12.93
COc1ccccc1C(C)(C)NC(=O)NCCC(=O)NC1CCCC1 | 3.692 | -1.485 | -7.626
CCN(CC)C(=O)c1nnn(-c2ccc(C)cc2)c1C1CC1 | 4.061 | -0.09719 | 4.984
O=C(NCCc1c[nH]c2ccc(F)cc12)C1(n2cnnn2)CCCCC1 | 0.4258 | 5.385 | -3.403
Cc1cc(C)n(CC2CCCN2Cc2nc(N)c3ccccc3n2)n1 (centres unmarked) | 3.249 | -2.3 | -23.98
COc1ncc(NS(=O)(=O)c2ccc(OC)c(C)c2)c(OC)n1 | 1.373 | -1.498 | -14.79
CC(C)CC(=O)N1CCCn2cnc(CN3CCCC3=O)c2C1 | 3.857 | 4.526 | -14.77
COc1ccc(Cl)cc1CN(C)C(=O)CN1C(=O)OC[C@@H]1C(C)C | 4.23 | 2.067 | -3.201
COc1ncccc1NC(=O)NCC1CCS(=O)(=O)C1 (centres unmarked) | 2.33 | 0.8793 | 7.329
Cc1ncsc1CN(Cc1ccccc1)Cc1ccncc1 | 7.647 | 0.4944 | -6.134
Fc1ccc(-c2nc(CNC3CCc4ncnn4C3)co2)cc1 (centres unmarked) | 0.006736 | 1.266 | -5.67
Cc1noc(C)c1CN1CCC2(CC1)C(c1ccccc1)CC(=O)N2C (centres unmarked) | 2.298 | - | 2.632
COc1ccc(F)c(-c2ncccc2NC(=O)C(C)C)c1 | -6.717 | 2.738 | -13.83
Cc1ccc(C)c(S(=O)(=O)CCNC2CCc3ncnn3C2)c1 (centres unmarked) | -0.0134 | 4.713 | -11.63
Cc1ccccc1CNc1nc(O)cc(C2CC(=O)N(C)C2)n1 (centres unmarked) | 1.056 | -2.258 | -0.1879
c1cncc(CN2CCO[C@H]3[C@H](OCCN4CCCC4)CC[C@@H]32)c1 | -1.981 | 2.571 | -24.04
Cc1nn(C)c(N2CCOCC2)c1CNC(C)c1ccccn1 (centres unmarked) | -1.984 | 0 | -13.35
CNC(=O)[C@H]1C[C@@H]2CN(C(=O)Nc3ccc(F)cc3)C[C@H]1O2 | 0.5231 | -5.182 | -7.386
CN1CCN(C(=O)C2CN(Cc3cc4ccccc4o3)CCN2)CC1 (centres unmarked) | 1.895 | -3.069 | 0.06348
CC(=O)N1CCCC1CCc1ccc(Cl)nn1 (centres unmarked) | 1.348 | -7.115 | -14.77
CN(C)c1cc(C(F)(F)F)cc(-c2ccc(C(=O)O)cc2)n1 | 1.729 | 0.5718 | -191.3
CCC(C)(O)CNc1ccc(S(=O)(=O)C(F)F)cc1 (centres unmarked) | 1.089 | -4.941 | 7.744
CC(c1ccc(-n2cncn2)cc1)N(C)Cc1ccccn1 (centres unmarked) | 7.753 | -0.5376 | -14.32
COc1ccc(CCC(=O)Nc2ccc3ncn(C)c(=O)c3c2)cc1 | 3.865 | -0.4045 | -3.401
O=C(CCc1nnc2ccccn2c1=O)NCc1cccnc1 | -1.67 | -0.9709 | 1.108
CCn1cc(NS(=O)(=O)c2ccc(F)cc2)c(C(=O)NCC(C)C)n1 | 6.128 | 3.834 | 0.3202
CCn1c(C)cc(C(=O)NCc2cccc(S(=O)(=O)NC)c2)c1C | 3.845 | -6.495 | -8.385
CCc1nc(C#N)c(N2CCC(c3nc(-c4ccccc4)no3)CC2)o1 | 3.243 | -3.864 | -20.17
Cn1nc(C2CN(S(C)(=O)=O)C2)c2nccnc21 | 0.7514 | - | -9.159
COc1ccccc1NC(=O)N1CCCC1c1ccco1 (centres unmarked) | 7.239 | 2.488 | -3.486
Cc1nc(C)c(C(=O)N2CCCC(c3cnccn3)C2)s1 (centres unmarked) | 0.4992 | -3.652 | 7.533
Cc1cnc(CN2CCCC(c3nc4ccccc4n3C(C)C)C2)o1 (centres unmarked) | -3.185 | 6.862 | -10.63
Cc1ncsc1CNc1ccn(Cc2ccccc2)n1 | 11.93 | -4.046 | -3.422
c1cc2nccc(CC3CCCN(Cc4c[nH]cn4)CC3)c2cn1 (centres unmarked) | 3.373 | - | 5.437
CCOCC1CN(C(=O)Cc2ccccn2)Cc2cnn(CC)c21 (centres unmarked) | -2.85 | -0.07639 | -9.572
CC(=O)N1C[C@H](NC(=O)c2csc(C(C)C)c2)[C@@H](C(C)C)C1 | -4.155 | 0.6721 | -10.17
O=C(NCc1ccco1)[C@H]1C[C@H]2OCC[C@H]2N(C(=O)c2ccco2)C1 | -4.034 | -2.204 | -3.652
CC(C)COCCNC1CCN(c2ccccn2)CC1 | 4.803 | -0.2172 | -4.24
COCCN(CC1CCCO1)C(=O)CCNC(=O)c1ccccc1F (centres unmarked) | 7.515 | -2.236 | 4.013
CC1(C)CC(N(Cc2ccncc2)Cc2cccnc2)CC(C)(C)N1 | -0.167 | - | -10.74
CCS(=O)(=O)N1CCc2c(nc(C3CCCN3)nc2NC)C1 (centres unmarked) | -2.354 | 10.53 | -10.46
CN(Cc1ccc(Cl)s1)C(=O)c1cccc(OCC(N)=O)c1 | 4.07 | 1.935 | -12.5
Cc1ccsc1CNC(=O)N1CCC(Cc2cnn(C)c2)C1 (centres unmarked) | 0.1201 | -4.992 | -18.73
Cn1ccnc1C1CCCN(C(=O)c2ccncc2F)C1 (centres unmarked) | -1.22 | 4.645 | 2.566
Cn1nccc1NC(=O)CN1CCc2sccc2C1 | 0.3159 | 1.93 | -11.33
COCCCn1c(CN2CCCCO2)cnc1S(=O)(=O)C1CCCC1 | -0.8617 | 2.001 | -9.898
Cc1ncncc1C(=O)Nc1cnn(CC(=O)NC2CCCC2)c1 | 0.6304 | 3.75 | 4.019
COc1ccccc1C(C)N1CCN(S(=O)(=O)N(C)C)CC1 (centres unmarked) | 0.9694 | -4.413 | 3.121
CC(Nc1nc2c(cnn2C)c(=O)[nH]1)c1ccc2c(c1)CCCC2 (centres unmarked) | 5.532 | -7.834 | 4.165
O=C1COc2ccc(C(=O)NS(=O)(=O)c3ccc(F)cc3F)cc2N1 | 1.293 | -2.632 | -1.845
Cc1ccc(N2CC[C@H]3[C@@H]2CCC(=O)N3CCN2CCOCC2)nn1 | 3.05 | 0.2907 | -5.27
Cc1nccn1C1CCCN(C(=O)c2cc(Cl)c3c(c2)OCO3)C1 (centres unmarked) | 0.6525 | -2.3 | -4.73
Cc1cnn(CC2CN(Cc3nc(-c4ccccn4)no3)CCO2)c1 (centres unmarked) | -1.419 | -1.271 | -22.47
CCOCC1CN(C(=O)C2=CCCC2)Cc2cnn(C)c21 (centres unmarked) | -1.651 | -2.039 | -7.363
CC(=O)N1CCN(c2cnccn2)CC(CO)C1 (centres unmarked) | -0.4553 | -8.708 | -27.21
CCN1CC[C@@]2(C(=O)N3CCOCC3)CCN(C(=O)NC)CC[C@@H]12 | 2.317 | -2.991 | 0.4984

Some entries from above, unchanged:

{"compound": "CC(C)CC(=O)N1CCCn2cnc(CN3CCCC3=O)c2C1", "A": 3.857, "B": 4.526, "C": -14.77}
{"compound": "Cc1nc(C)c(C(=O)N2CCCC(c3cnccn3)C2)s1", "stereo": "centres unmarked", "A": 0.4992, "B": -3.652, "C": 7.533}
{"compound": "CN(C)c1cc(C(F)(F)F)cc(-c2ccc(C(=O)O)cc2)n1", "A": 1.729, "B": 0.5718, "C": -191.3}
{"compound": "CC(c1ccc(-n2cncn2)cc1)N(C)Cc1ccccn1", "stereo": "centres unmarked", "A": 7.753, "B": -0.5376, "C": -14.32}
{"compound": "Fc1ccc(-c2nc(CNC3CCc4ncnn4C3)co2)cc1", "stereo": "centres unmarked", "A": 0.006736, "B": 1.266, "C": -5.67}

From ChEMBL document CHEMBL3988442, “University of Dundee, Small-Polar-MMV Screening Library” (2021).